# Assay results from article PMC9832833, “Mitogen-activated protein kinase 14-mediated phosphorylation of MaMYB4 negatively regulates banana fruit ripening”.
# Key:
# Test in all cases: EMSA
# [1] = target: GST-MaMYB4 phosphorylated by MaMPK14 (Musa acuminata (banana)) (UniProt A0A804HW33); conditions: preincubated with MBP-MaMPK14, 10 mM ATP, 20 mM MgCl2, binding enhanced vs GST-MaMYB4 alone, EMSA buffer not stated (kit per cited Fan et al.), kinase preincubation in 20 mM Tris-HCl, 20 mM MgCl2, 100 mM NaCl, 2 mM DTT, 0.5 h at 30 C, pH not stated, recombinant protein, protein details: GST (N-term, pGEX-4T-1), label: biotin
# [2] = target: T1, GST-MaMYB4S160A (Musa acuminata (banana)) (UniProt A0A804HW33); conditions: kinase preincubation in 20 mM Tris-HCl, 20 mM MgCl2, 100 mM NaCl, 2 mM DTT, 0.5 h at 30 C, pH not stated, recombinant protein, protein details: GST (N-term, pGEX-4T-1), label: biotin
# T1 sequence (looked up, limits assumed): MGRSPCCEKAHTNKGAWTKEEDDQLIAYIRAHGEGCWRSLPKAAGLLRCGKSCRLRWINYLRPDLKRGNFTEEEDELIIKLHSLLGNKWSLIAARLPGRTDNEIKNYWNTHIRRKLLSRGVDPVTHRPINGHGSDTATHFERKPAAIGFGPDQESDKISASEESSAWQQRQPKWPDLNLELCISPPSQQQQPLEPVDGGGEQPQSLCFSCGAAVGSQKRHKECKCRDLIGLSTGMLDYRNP
# [3] = test system: GST; conditions: GST alone; EMSA buffer not stated (kit per cited Fan et al.); kinase preincubation in 20 mM Tris-HCl, 20 mM MgCl2, 100 mM NaCl, 10 mM ATP, 2 mM DTT, 0.5 h at 30 C; pH not stated; recombinant protein; protein details: GST; label: biotin
sequence,measurement,setting,value
CCAAAAACAGGGTAGGTGGATGGCTTACATGCTCACCTAATAATTTATTT (double strand) [MaACS1 promoter probe],binding result,[1],binds
same,binding result,"[2]; preincubated with MBP-MaMPK14, 10 mM ATP, 20 mM MgCl2, EMSA buffer not stated (kit per cited Fan et al.)",binds more weakly
same,binding result,"[2]; without MBP-MaMPK14, EMSA buffer not stated (kit per cited Fan et al.), 10 mM ATP",binds more weakly
same,binding result,[3],no binding

# The exact form of at least one protein or probe is not confirmed. For some of these results: No signal at the amounts used counts as a negative. For some of these results: Weaker means in comparison with the reference protein, sequence or condition of that experiment. For some of these results: Where a protein sequence is shown, tags need not be part of it.
